The reference is the same well before dosing, and untreated signal decays as well.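 The tumor cells are basal-like or mesenchymal-like triple-negative breast cancer lines cultured without fibroblasts. Reduced red signal indicates lost mitochondrial integrity, serving as a proxy for apoptotic death.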
Key:
Test in all cases: relative JC-1 red fluorescence (viability) vs pre-drug, monoculture (fraction); higher = more viable cancer cells
Settings in all cases: coculture fibroblast: none (monoculture)
Hs578T = system: Hs578T
Procedure: (§1)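 JC-1 labelled TNBC cells grown in monoculture (density kept equal with unlabelled cancer cells) in 384-well plates in FluoroBrite medium, treated with one of 42 anticancer drugs at 0.1, 1, 10 or 100 uM. JC-1 red fluorescence (mitochondrial integrity, surrogate of apoptotic death) was read by plate reader every 8 h for 72 h. Values are normalised to each well's pre-drug value, with background from alamethicin. The stock of one drug was tenfold lower, so its dose labels may be too high. Monoculture values are repeated alongside each fibroblast plate and are averaged here.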

MDAMB231 = system: MDAMB231
Procedure: as §1

BT20 = system: BT20
Procedure: as §1

MDAMB468 = system: MDAMB468
Procedure: as §1

CC/C(=C(\c1ccccc1)c1ccc(OCCN(C)C)cc1)c1ccccc1 [Tamoxifen]
relative JC-1 red fluorescence
Settings | 8 h | 16 h | 24 h | 32 h | 40 h | 48 h | 56 h | 64 h | 72 h
BT20, 0.1 µM | 0.955 | 0.878 | 0.7958 | 0.7338 | 0.6958 | 0.6779 | 0.661 | 0.64073 | 0.6331
BT20, 1 µM | 0.82 | 0.901 | 0.773 | 0.795 | 0.754 | 0.751 | 0.763 | 0.73 | 0.628
BT20, 10 µM | 0.9521 | 0.9573 | 0.9139 | 0.923 | 0.926 | 0.938 | 0.941 | 0.934 | 0.929
Hs578T, 0.1 µM | 0.8393 | 0.741 | 0.6981 | 0.668 | 0.627 | 0.614 | 0.586 | 0.592 | 0.588
Hs578T, 1 µM | 0.846 | 0.76 | 0.701 | 0.626 | 0.571 | 0.541 | 0.509 | 0.492 | 0.47
Hs578T, 10 µM | 0.9272 | 0.945 | 0.882 | 0.932 | 0.947 | 0.879 | 0.967 | 0.946 | 0.945
MDAMB231, 0.1 µM | 0.73 | 0.688 | 0.607 | 0.592 | 0.533 | 0.5199 | 0.483 | 0.49 | 0.487
MDAMB231, 1 µM | 0.751 | 0.779 | 0.659 | 0.657 | 0.608 | 0.576 | 0.534 | 0.535 | 0.526
MDAMB231, 10 µM | 0.773 | 0.853 | 0.697 | 0.847 | 0.837 | 0.821 | 0.813 | 0.805 | 0.774
MDAMB468, 0.1 µM | 0.894 | 0.842 | 0.7411 | 0.6679 | 0.6142 | 0.593 | 0.5587 | 0.528 | 0.517
MDAMB468, 1 µM | 0.922 | 0.8812 | 0.851 | 0.801 | 0.7809 | 0.7633 | 0.7297 | 0.6946 | 0.6889
MDAMB468, 10 µM | 0.901 | 0.923 | 0.771 | 0.775 | 0.767 | 0.888 | 0.854 | 0.792 | 0.616

CC[C@]1(O)C[C@H]2CN(CCc3c([nH]c4ccccc34)[C@@](C(=O)OC)(c3cc4c(cc3OC)N(C=O)[C@H]3[C@@](O)(C(=O)OC)[C@H](OC(C)=O)[C@]5(CC)C=CCN6CC[C@]43[C@@H]65)C2)C1 [Vincristine]
relative JC-1 red fluorescence
Settings | 8 h | 16 h | 24 h | 32 h | 40 h | 48 h | 56 h | 64 h | 72 h
BT20, 0.1 µM | 0.953 | 0.8859 | 0.88303 | 0.8135 | 0.7869 | 0.7832 | 0.7652 | 0.768 | 0.7643
BT20, 1 µM | 0.9248 | 0.866 | 0.77 | 0.706 | 0.654 | 0.632 | 0.5852 | 0.5461 | 0.523
BT20, 10 µM | 0.964 | 0.8579 | 0.8241 | 0.753 | 0.7032 | 0.665 | 0.62 | 0.596 | 0.572
BT20, 100 µM | 0.9646 | 0.948 | 0.91 | 0.86 | 0.832 | 0.81 | 0.783 | 0.766 | 0.7498
Hs578T, 0.1 µM | 0.781 | 0.662 | 0.634 | 0.558 | 0.508 | 0.487 | 0.466 | 0.466 | 0.465
Hs578T, 1 µM | 0.85 | 0.732 | 0.666 | 0.594 | 0.565 | 0.545 | 0.52 | 0.535 | 0.537
Hs578T, 10 µM | 0.866 | 0.732 | 0.728 | 0.656 | 0.63 | 0.612 | 0.596 | 0.597 | 0.592
Hs578T, 100 µM | 0.8863 | 0.8404 | 0.772 | 0.73 | 0.676 | 0.633 | 0.584 | 0.558 | 0.541
MDAMB231, 0.1 µM | 0.759 | 0.7357 | 0.844 | 0.74 | 0.719 | 0.74 | 0.739 | 0.792 | 0.813
MDAMB231, 1 µM | 0.788 | 0.772 | 0.643 | 0.6817 | 0.6453 | 0.6317 | 0.6109 | 0.623 | 0.6228
MDAMB231, 10 µM | 0.842 | 0.76 | 0.889 | 0.7856 | 0.764 | 0.7748 | 0.7725 | 0.814 | 0.815
MDAMB231, 100 µM | 0.7864 | 0.855 | 0.67 | 0.798 | 0.776 | 0.75 | 0.706 | 0.689 | 0.674
MDAMB468, 0.1 µM | 0.8201 | 0.8034 | 0.814 | 0.7936 | 0.7677 | 0.7783 | 0.7757 | 0.7695 | 0.7653
MDAMB468, 1 µM | 0.91426 | 0.871 | 0.849 | 0.792 | 0.77 | 0.754 | 0.729 | 0.702 | 0.692
MDAMB468, 10 µM | 0.9009 | 0.882 | 0.887 | 0.826 | 0.794 | 0.782 | 0.752 | 0.727 | 0.71
MDAMB468, 100 µM | 0.933 | 0.901 | 0.913 | 0.89 | 0.884 | 0.887 | 0.856 | 0.825 | 0.816

CCC1=C[C@@H]2CN(C1)Cc1c([nH]c3ccccc13)[C@@](C(=O)OC)(c1cc3c(cc1OC)N(C)[C@H]1[C@@](O)(C(=O)OC)[C@H](OC(C)=O)[C@]4(CC)C=CCN5CC[C@]31[C@@H]54)C2 [Vinorelbine]
relative JC-1 red fluorescence
Settings | 8 h | 16 h | 24 h | 32 h | 40 h | 48 h | 56 h | 64 h | 72 h
BT20, 0.1 µM | 0.955 | 0.911 | 0.795 | 0.725 | 0.685 | 0.639 | 0.599 | 0.5839 | 0.5564
BT20, 1 µM | 0.9555 | 0.9136 | 0.832 | 0.763 | 0.714 | 0.696 | 0.669 | 0.646 | 0.62
BT20, 10 µM | 0.9466 | 0.917 | 0.865 | 0.813 | 0.771 | 0.747 | 0.711 | 0.683 | 0.646
BT20, 100 µM | 0.504 | 0.309 | 0.243 | 0.16 | 0.124 | 0.104 | 0.0774 | 0.0606 | 0.0459
Hs578T, 0.1 µM | 0.825 | 0.704 | 0.606 | 0.541 | 0.5 | 0.482 | 0.454 | 0.445 | 0.44
Hs578T, 1 µM | 0.812 | 0.6968 | 0.626 | 0.543 | 0.478 | 0.437 | 0.405 | 0.393 | 0.38
Hs578T, 10 µM | 0.8489 | 0.7647 | 0.646 | 0.583 | 0.5042 | 0.482 | 0.424 | 0.373 | 0.334
Hs578T, 100 µM | 0.393 | 0.212 | 0.166 | 0.0962 | 0.0666 | 0.0427 | 0.0206 | 0.0227 | 0.00336
MDAMB231, 0.1 µM | 0.749 | 0.682 | 0.693 | 0.599 | 0.574 | 0.566 | 0.557 | 0.594 | 0.592
MDAMB231, 1 µM | 0.7737 | 0.762 | 0.653 | 0.624 | 0.584 | 0.549 | 0.51 | 0.505 | 0.483
MDAMB231, 10 µM | 0.7435 | 0.768 | 0.653 | 0.715 | 0.6784 | 0.62 | 0.5732 | 0.545 | 0.518
MDAMB231, 100 µM | 0.526 | 0.357 | 0.242 | 0.154 | 0.107 | 0.0953 | 0.0863 | 0.0809 | 0.0777
MDAMB468, 0.1 µM | 0.918 | 0.888 | 0.798 | 0.745 | 0.7 | 0.662 | 0.636 | 0.607 | 0.592
MDAMB468, 1 µM | 0.9461 | 0.906 | 0.877 | 0.816 | 0.787 | 0.771 | 0.7267 | 0.6928 | 0.6812
MDAMB468, 10 µM | 0.9165 | 0.878 | 0.838 | 0.7682 | 0.729 | 0.70528 | 0.6728 | 0.638 | 0.618
MDAMB468, 100 µM | 0.452 | 0.255 | 0.176 | 0.122 | 0.0887 | 0.0703 | 0.0423 | 0.0247 | 0.0192

— the supplement of paper PMC6078165
